The supplement of paper PMC4604168 (melanoma cell lines)
The list shows a part of the results. Many values rest on one well or one pass, so single values are uncertain.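 Cells were imaged in 1,536-well plates, and nuclei stained with an antibody against cleaved PARP were counted against all DNA-stained nuclei to give the apoptosis fraction. Screening doses were chosen to leave most cells alive, and resting and induced cleaved-PARP levels differ strongly between cell lines.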

These molecules were tested on A101D (assay: cleaved PARP positive nuclei fraction relative to DMSO control; melanoma cells; higher = more apoptosis). Settings: library dose: low library concentration; 72 h.

| Compound | cleaved PARP positive nuclei fraction [%] |
| --- | --- |
| C[C@]1(O)C[C@@H](c2nc(-c3ccc4ccc(-c5ccccc5)nc4c3)c3c(N)nccn32)C1 + C[C@@H]1CCN(C(=O)CC#N)C[C@@H]1N(C)c1ncnc2[nH]ccc12 [CP690550] (first compound 0.4 µM, partner dose 1 µM) | 41.9 |
| Cn1sc(=O)n(Cc2ccccc2)c1=O + NCC(=O)Nc1ccc(-n2nc(C(F)(F)F)cc2-c2ccc3c(ccc4ccccc43)c2)cc1 [OSU03012] (first compound 0.4 µM, partner dose 1 µM) | 157 |
| Cn1sc(=O)n(Cc2ccccc2)c1=O + COc1cc2ncnc(Nc3ccc(Oc4ccccc4)cc3)c2cc1OC [SrcI1] (first compound 0.4 µM, partner dose 2 µM) | 28.6 |
| Cn1cnc2c(F)c(Nc3ccc(Br)cc3Cl)c(C(=O)NOCCO)cc21 [selumetinib] + Oc1nc(-c2ccc(C(F)(F)F)cc2)nc2c1CSCC2 [XAV939] (first compound 0.015 µM, partner dose 2 µM) | 25.3 |
| CCCCCCCCc1ccc(CCC(N)(CO)CO)cc1 [fingolimod] + O=C(CCCCCCC(=O)Nc1ccccc1)NO [vorinostat] (first compound 2 µM, partner dose 0.08 µM) | 70.2 |
| NC1(c2ccc(-c3nc4ccn5c(=O)[nH]nc5c4cc3-c3ccccc3)cc2)CCC1 + COc1cc2ncnc(Nc3ccc(Oc4ccccc4)cc3)c2cc1OC [SrcI1] (first compound 0.4 µM, partner dose 2 µM) | 30.1 |
| CCCCCCCCc1ccc(CCC(N)(CO)CO)cc1 [fingolimod] + Cc1ccc(NC(=O)c2cccc(N(C)C)c2)cc1NC(=O)c1ccc(O)cc1 [ZM336372] (first compound 2 µM, partner dose 2 µM) | 268 |
| Cn1sc(=O)n(Cc2ccccc2)c1=O + Cn1cc(/C=C2\C(=O)Nc3cccnc32)c2ccccc21 [GW441756] (first compound 0.4 µM, partner dose 0.4 µM) | 23.2 |
| CCN(CC)CCNC(=O)c1c(C)[nH]c(/C=C2\C(=O)Nc3ccc(F)cc32)c1C [sunitinib] + CC1(C)NC(=O)N(c2ccc([N+](=O)[O-])c(C(F)(F)F)c2)C1=O [nilutamide] (first compound 0.4 µM, partner dose 1 µM) | 77.7 |
| CN(c1ncccc1CNc1nc(Nc2ccc3c(c2)CC(=O)N3)ncc1C(F)(F)F)S(C)(=O)=O + COc1cc2c(Oc3ccc4[nH]c(C)cc4c3F)ncnc2cc1OCCCN1CCCC1 [cediranib] (first compound 0.08 µM, partner dose 0.4 µM) | 82.4 |
| C[C@@H](N)c1ccc(C(=O)Nc2ccnc3[nH]ccc23)cc1 + COc1cc2ncnc(Nc3ccc(Oc4ccccc4)cc3)c2cc1OC [SrcI1] (first compound 0.4 µM, partner dose 2 µM) | 28.7 |
| CCCCCCCCc1ccc(CCC(N)(CO)CO)cc1 [fingolimod] + Oc1cc(-c2nc(-c3ccccc3)[nH]c2-c2ccncc2)ccc1Cl [L779450] (first compound 2 µM, partner dose 0.2 µM) | 20.7 |
| C[C@@H](N)c1ccc(C(=O)Nc2ccnc3[nH]ccc23)cc1 + O=S(=O)(c1ccccc1)N(CC(F)(F)F)c1ccc(C(O)(C(F)(F)F)C(F)(F)F)cc1 [T0901317] (first compound 0.4 µM, partner dose 1.4 µM) | 20.5 |
| CN(c1ncccc1CNc1nc(Nc2ccc3c(c2)CC(=O)N3)ncc1C(F)(F)F)S(C)(=O)=O + O=c1cc(-c2cccc3c2Sc2ccccc2S3)oc(N2CCOCC2)c1 [KU55933] (first compound 0.08 µM, partner dose 1 µM) | 13.5 |
| C[C@]1(O)C[C@@H](c2nc(-c3ccc4ccc(-c5ccccc5)nc4c3)c3c(N)nccn32)C1 + CCc1ccc(CCOc2ccc(CC3SC(=O)NC3=O)cc2)nc1 [pioglitazone] (first compound 0.4 µM, partner dose 2 µM) | 17.9 |
| C[C@]1(O)C[C@@H](c2nc(-c3ccc4ccc(-c5ccccc5)nc4c3)c3c(N)nccn32)C1 + COc1ccc2c(c1)CCC1C2CCC2(C)C(NCCCCCCN3C(=O)C=CC3=O)CCC12 [U73122] (first compound 0.4 µM, partner dose 0.4 µM) | 25 |

| Compound | cleaved PARP positive nuclei fraction [%] |
| --- | --- |
| C[C@]1(O)C[C@@H](c2nc(-c3ccc4ccc(-c5ccccc5)nc4c3)c3c(N)nccn32)C1 + O=C1NC(=O)/C(=C/c2ccc(-c3ccc(F)cc3O)o2)S1 [AS252424] (first compound 0.4 µM, partner dose 1 µM) | 20.9 |
| CC1(C)CCC(c2ccc(Cl)cc2)=C(CN2CCN(c3ccc(C(=O)NS(=O)(=O)c4ccc(N[C@H](CCN5CCOCC5)CSc5ccccc5)c(S(=O)(=O)C(F)(F)F)c4)cc3)CC2)C1 + O=C(Nc1cccc(Cl)c1)Nc1ncc(CCNc2ncnc3ccsc23)s1 [SNS314] (first compound 0.4 µM, partner dose 0.0008 µM) | 165 |
| C[C@]1(O)C[C@@H](c2nc(-c3ccc4ccc(-c5ccccc5)nc4c3)c3c(N)nccn32)C1 + O=C(Nc1ccccc1)c1cc([N+](=O)[O-])ccc1Cl [GW9662] (first compound 0.4 µM, partner dose 2 µM) | 9.26 |
| NC1(c2ccc(-c3nc4ccn5c(=O)[nH]nc5c4cc3-c3ccccc3)cc2)CCC1 + Cc1cc(N2CCOCC2)cc2[nH]c(-c3c(NC[C@@H](O)c4cccc(Cl)c4)cc[nH]c3=O)nc12 [BMS536924] (first compound 0.4 µM, partner dose 0.2 µM) | 215 |
| CCN(CC)CCNC(=O)c1c(C)[nH]c(/C=C2\C(=O)Nc3ccc(F)cc32)c1C [sunitinib] + O=c1cc(-c2cccc3c2Sc2ccccc2S3)oc(N2CCOCC2)c1 [KU55933] (first compound 0.4 µM, partner dose 1 µM) | 23.8 |
| CS(=O)(=O)c1ccc(C(=O)Nc2ccc(Cl)c(-c3ccccn3)c2)c(Cl)c1 [vismodegib] + CN(NC(=O)CC(=O)NN(C)C(=S)c1ccccc1)C(=S)c1ccccc1 [STA4783] (first compound 1 µM, partner dose 0.006 µM) | 98.5 |
| Cn1cnc2c(F)c(Nc3ccc(Br)cc3Cl)c(C(=O)NOCCO)cc21 [selumetinib] + C=CCNC1=C2C[C@@H](C)C[C@H](OC)[C@H](O)[C@@H](C)/C=C(\C)[C@H](OC(N)=O)[C@@H](OC)/C=C\C=C(/C)C(=O)NC(=CC1=O)C2=O [Tanespimycin] (first compound 0.015 µM, partner dose 0.002 µM) | 49.7 |
| Cn1cnc2c(F)c(Nc3ccc(Br)cc3Cl)c(C(=O)NOCCO)cc21 [selumetinib] + O=S(=O)(c1ccccc1)N(CC(F)(F)F)c1ccc(C(O)(C(F)(F)F)C(F)(F)F)cc1 [T0901317] (first compound 0.015 µM, partner dose 1.4 µM) | 49 |
| NC1(c2ccc(-c3nc4ccn5c(=O)[nH]nc5c4cc3-c3ccccc3)cc2)CCC1 + O=C(O)C(=O)Nc1sc2c(c1C(=O)O)CCNC2 [TCS401] (first compound 0.4 µM, partner dose 1.66667 µM) | 35.7 |
| CC1(C)CCC(c2ccc(Cl)cc2)=C(CN2CCN(c3ccc(C(=O)NS(=O)(=O)c4ccc(N[C@H](CCN5CCOCC5)CSc5ccccc5)c(S(=O)(=O)C(F)(F)F)c4)cc3)CC2)C1 + Nc1nc(F)nc2c1ncn2[C@@H]1O[C@H](CO)[C@@H](O)[C@@H]1O [fludarabine] (first compound 0.4 µM, partner dose 0.2 µM) | 212 |
| Cn1sc(=O)n(Cc2ccccc2)c1=O + C=CCNC1=C2C[C@@H](C)C[C@H](OC)[C@H](O)[C@@H](C)/C=C(\C)[C@H](OC(N)=O)[C@@H](OC)/C=C\C=C(/C)C(=O)NC(=CC1=O)C2=O [Tanespimycin] (first compound 0.4 µM, partner dose 0.002 µM) | 98.9 |
| Cn1cnc2c(F)c(Nc3ccc(Br)cc3Cl)c(C(=O)NOCCO)cc21 [selumetinib] + COc1ccc2c(c1)CCC1C2CCC2(C)C(NCCCCCCN3C(=O)C=CC3=O)CCC12 [U73122] (first compound 0.015 µM, partner dose 0.4 µM) | 66.1 |
| CCCCCCCCc1ccc(CCC(N)(CO)CO)cc1 [fingolimod] + CC(C)(C)c1cnc(CSc2cnc(NC(=O)C3CCNCC3)s2)o1 [SNS-032] (first compound 2 µM, partner dose 0.01 µM) | 115 |
| NC(=O)c1ccc(N(C(N)=O)c2c(F)cccc2F)nc1-c1ccc(F)cc1F + COCC[n+]1c2c(n(Cc3cnccn3)c1C)C(=O)c1ccccc1C2=O [YM155] (first compound 0.4 µM, partner dose 0.0004 µM) | 25.6 |
| NC1(c2ccc(-c3nc4ccn5c(=O)[nH]nc5c4cc3-c3ccccc3)cc2)CCC1 + CO[C@@H]1[C@H](N(C)C(=O)c2ccccc2)C[C@H]2O[C@]1(C)n1c3ccccc3c3c4c(c5c6ccccc6n2c5c31)C(=O)NC4 [Midostaurin] (first compound 0.4 µM, partner dose 0.08 µM) | 230 |
| CC1(C)CCC(c2ccc(Cl)cc2)=C(CN2CCN(c3ccc(C(=O)NS(=O)(=O)c4ccc(N[C@H](CCN5CCOCC5)CSc5ccccc5)c(S(=O)(=O)C(F)(F)F)c4)cc3)CC2)C1 + Cn1nnc2c(C(N)=O)ncn2c1=O [temozolomide] (first compound 0.4 µM, partner dose 2 µM) | 134 |

2 entries picked at random from the list so far:

| Compound | cleaved PARP positive nuclei fraction [%] |
| --- | --- |
| CC1(C)CCC(c2ccc(Cl)cc2)=C(CN2CCN(c3ccc(C(=O)NS(=O)(=O)c4ccc(N[C@H](CCN5CCOCC5)CSc5ccccc5)c(S(=O)(=O)C(F)(F)F)c4)cc3)CC2)C1 + Nc1nc(F)nc2c1ncn2[C@@H]1O[C@H](CO)[C@@H](O)[C@@H]1O [fludarabine] (first compound 0.4 µM, partner dose 0.2 µM) | 212 |
| CC1(C)CCC(c2ccc(Cl)cc2)=C(CN2CCN(c3ccc(C(=O)NS(=O)(=O)c4ccc(N[C@H](CCN5CCOCC5)CSc5ccccc5)c(S(=O)(=O)C(F)(F)F)c4)cc3)CC2)C1 + Cn1nnc2c(C(N)=O)ncn2c1=O [temozolomide] (first compound 0.4 µM, partner dose 2 µM) | 134 |
